Measurements reported in PubChem BioAssay AID1053208 (Peter MacCallum Cancer Centre, 2014).
Here is an unselected part of about 17,000 deposited reagents. 788 of all reagents (4.7%) were called active. 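Calls rest on z-score classes alone; an extra cut-off of viability at most 70% of control was not applied to them.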 Entries without a mark were called inactive. Not all columns of the deposit are shown. Reagent sequences are not shown.

Assay: 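Genes whose silencing cuts survival of bone tumour cells only with doxorubicin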 (primary screen)
Cells: mouse osteosarcoma cells, early-passage culture from an engineered mouse model of fibroblastic bone tumour
Reagent: siRNA pool against mouse genes, 40 nM
Timing: about 120 h (48 h before drug, then 72 h with drug)
Conditions: doxorubicin 100 nM for 72 h, roughly 30-40% inhibitory dose
Read-out: 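Viability read as ATP luminescence after 72 h of 100 nM doxorubicin or none, duplicate wells averaged, scaled to non-targeting siRNA, then expressed as robust z-scores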
Reading the numbers: viability z-score with doxorubicin: higher = more viable cells under doxorubicin; viability z-score without drug: higher = more viable cells with knock-down alone
Rule for the call: 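Called active if knock-down leaves viability unchanged without drug (z within -2 to 2) but lowers it with doxorubicin (z at or under -2)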

gene | combined z-score class | viability z-score with doxorubicin | viability z-score without drug
Usp26 | no change with or without drug | -0.34 | -0.67
Cyp2c50 | no change with or without drug | 1.35 | 1.52
Myadm | no change with or without drug | -1.01 | -1.18
Cip2a | no change with or without drug | -1.01 | -0.17
Khnyn | no change with or without drug | 0.45 | 0.34
Bmi1 | no change with or without drug | 0.67 | 0.17
C030033M19RIK | no change with or without drug | 0 | -1.18
Ngb | no change with or without drug | 0.9 | 1.52
Chmp4b | low cell count with and without drug | -7.31 | -4.22
Hoxc13 | no change with or without drug | -0.22 | -1.18
Snip1 | no change with or without drug | -0.34 | -1.01
Srl | no change with or without drug | -0.67 | -1.52
Myh11 | no change with or without drug | -0.22 | 1.18
Sox11 | no change with or without drug | -1.12 | -1.85
Sbk1 | no change with or without drug | -0.34 | -0.17
St6galnac4 | no change with or without drug | -0.22 | -0.51
Cabyr | no change with or without drug | -0.11 | 0.51
Msh3 | no change with or without drug | -0.9 | -1.35
Polg2 | no change with or without drug | 0.11 | -0.84
Memo1 | no change with or without drug | -0.45 | -0.84
